Experimental findings from patent publication US20250340575A1, “4-AMINOPYRROLO[2,1-F][1,2,4]TRIAZINES AND PREPARATION AND USES THEREOF” (Biosplice Therapeutics, Inc., priority 2024, published 2025) are described below.

The structures appear in SMILES notation. The structures given here were assigned with low confidence; some may be wrong.

The target of the assay is recombinant DYRK1A kinase (Homo sapiens, UniProt Q13627). Put plainly: DYRK1A kinase assay (Ser/Thr 18 peptide Z-lyte FRET). The conditions noted are these: DYRK1A 0.25 μg/mL, ATP 15 μM, Ser/Thr peptide 18 4 μM, one hour at room temperature, 11-point dose-response from 10 μM.

The IC50 is the concentration that gives 50% inhibition. For `CC(=O)N1CC[C@@H](Nc2nc(N)c3c(-c4ccc5ncn(CC(F)(F)F)c5n4)ccn3n2)C(F)(F)C1`, the IC50 is 1.2 nM.
